Experimental findings from paper PMC7541343 are described below.

No constants are given. Whether binding was seen depends on the method and setting. Binding seen in cells or lysates may run through a third protein. A result given as binding can be weak or reduced; the word gives no strength. Sequences can lack the tags named with a protein.

For experiment [1], the target named is T1, HA-Smyd2b (zebrafish) (UniProt Q5RGL7).
T1 sequence: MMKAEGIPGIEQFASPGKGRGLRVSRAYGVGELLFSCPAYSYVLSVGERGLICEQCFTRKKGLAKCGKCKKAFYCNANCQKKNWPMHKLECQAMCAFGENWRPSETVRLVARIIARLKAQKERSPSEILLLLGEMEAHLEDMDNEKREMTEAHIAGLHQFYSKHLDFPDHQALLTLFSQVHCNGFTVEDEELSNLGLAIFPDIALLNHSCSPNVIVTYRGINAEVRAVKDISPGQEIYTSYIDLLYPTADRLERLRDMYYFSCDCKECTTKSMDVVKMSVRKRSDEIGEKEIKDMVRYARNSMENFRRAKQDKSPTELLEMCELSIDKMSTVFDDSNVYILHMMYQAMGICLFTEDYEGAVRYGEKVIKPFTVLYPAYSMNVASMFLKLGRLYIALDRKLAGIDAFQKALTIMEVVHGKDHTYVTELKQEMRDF
As to the kind of experiment: co-IP; HEK 293T cells co-transfected, lysed 48 h later (50 mM Tris-HCl pH 7.5, 150 mM NaCl, 1% Triton X-100, 1 mM EDTA, 1 mM DTT); lysate diluted to 0.2% Triton X-100, incubated with anti-Myc/HA-affinity beads 4 h at 4°C; Stat3 detected with anti-Flag antibody by western blot.

Experiment [2] deals with T2, Myc-Smyd2a (zebrafish) (UniProt Q5BJI7).
T2 sequence: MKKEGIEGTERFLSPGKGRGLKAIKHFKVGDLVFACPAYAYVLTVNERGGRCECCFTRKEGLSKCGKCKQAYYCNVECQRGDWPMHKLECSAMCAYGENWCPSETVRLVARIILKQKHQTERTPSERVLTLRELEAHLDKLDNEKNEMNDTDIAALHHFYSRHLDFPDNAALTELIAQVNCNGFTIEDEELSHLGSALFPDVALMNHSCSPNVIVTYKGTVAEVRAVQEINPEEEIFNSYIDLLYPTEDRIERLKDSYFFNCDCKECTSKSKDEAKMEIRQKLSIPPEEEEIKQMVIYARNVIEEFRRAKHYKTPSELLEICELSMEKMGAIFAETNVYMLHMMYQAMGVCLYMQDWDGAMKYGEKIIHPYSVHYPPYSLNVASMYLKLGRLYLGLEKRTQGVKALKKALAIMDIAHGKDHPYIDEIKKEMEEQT
Described as above.

As to Flag-Stat3, the binding result in experiment [1] and in experiment [2] was “binds” each time.
